Experimental data: the supplement of paper PMC10849652
This is one part of the list.

The chains behind the UniProt entries cited, without tags or fusion partners. Where a name states a change or a piece, a line headed by the entry shows the natural chain unless it says otherwise.
UniProt Q9Y222: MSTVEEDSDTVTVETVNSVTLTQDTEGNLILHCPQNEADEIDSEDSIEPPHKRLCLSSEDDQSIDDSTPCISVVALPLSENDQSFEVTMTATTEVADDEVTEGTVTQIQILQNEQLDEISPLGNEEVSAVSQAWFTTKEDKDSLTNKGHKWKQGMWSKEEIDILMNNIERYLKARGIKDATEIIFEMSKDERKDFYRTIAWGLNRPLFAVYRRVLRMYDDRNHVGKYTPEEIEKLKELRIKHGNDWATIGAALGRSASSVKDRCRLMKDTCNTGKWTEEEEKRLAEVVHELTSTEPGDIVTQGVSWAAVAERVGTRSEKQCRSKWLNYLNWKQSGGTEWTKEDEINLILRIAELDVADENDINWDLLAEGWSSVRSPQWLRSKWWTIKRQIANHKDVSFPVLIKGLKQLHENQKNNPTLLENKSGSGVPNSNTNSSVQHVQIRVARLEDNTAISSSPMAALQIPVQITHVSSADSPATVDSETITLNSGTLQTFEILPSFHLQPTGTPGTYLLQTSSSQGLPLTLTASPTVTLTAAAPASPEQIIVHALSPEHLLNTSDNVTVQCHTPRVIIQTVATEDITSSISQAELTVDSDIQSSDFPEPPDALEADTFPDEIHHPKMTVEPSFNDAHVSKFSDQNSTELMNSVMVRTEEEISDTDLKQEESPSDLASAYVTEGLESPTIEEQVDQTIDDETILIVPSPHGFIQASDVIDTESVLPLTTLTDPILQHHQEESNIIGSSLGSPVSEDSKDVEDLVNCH
UniProt Q6E0U4: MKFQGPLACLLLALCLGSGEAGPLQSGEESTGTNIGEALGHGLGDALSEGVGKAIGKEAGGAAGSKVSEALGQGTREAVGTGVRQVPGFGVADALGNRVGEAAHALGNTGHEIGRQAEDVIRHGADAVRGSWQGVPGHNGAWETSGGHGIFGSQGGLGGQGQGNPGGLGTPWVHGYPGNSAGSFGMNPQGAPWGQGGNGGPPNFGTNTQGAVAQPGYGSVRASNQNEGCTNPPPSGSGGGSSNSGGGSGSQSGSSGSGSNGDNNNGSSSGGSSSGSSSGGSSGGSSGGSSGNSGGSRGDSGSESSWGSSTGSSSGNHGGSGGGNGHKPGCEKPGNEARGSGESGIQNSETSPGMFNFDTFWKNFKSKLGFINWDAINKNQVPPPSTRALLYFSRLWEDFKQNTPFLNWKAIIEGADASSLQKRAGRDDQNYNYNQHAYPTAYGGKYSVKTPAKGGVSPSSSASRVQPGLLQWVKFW
UniProt Q8N5I4: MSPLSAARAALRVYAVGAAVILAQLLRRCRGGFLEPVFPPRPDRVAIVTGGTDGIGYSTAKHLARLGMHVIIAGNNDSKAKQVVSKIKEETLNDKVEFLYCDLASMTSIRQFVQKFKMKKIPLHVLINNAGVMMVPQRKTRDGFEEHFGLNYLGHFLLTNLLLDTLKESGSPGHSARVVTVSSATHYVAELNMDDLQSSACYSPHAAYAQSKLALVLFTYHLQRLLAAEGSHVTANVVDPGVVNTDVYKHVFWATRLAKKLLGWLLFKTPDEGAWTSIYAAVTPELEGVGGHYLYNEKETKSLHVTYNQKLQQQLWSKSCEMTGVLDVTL
UniProt Q14147: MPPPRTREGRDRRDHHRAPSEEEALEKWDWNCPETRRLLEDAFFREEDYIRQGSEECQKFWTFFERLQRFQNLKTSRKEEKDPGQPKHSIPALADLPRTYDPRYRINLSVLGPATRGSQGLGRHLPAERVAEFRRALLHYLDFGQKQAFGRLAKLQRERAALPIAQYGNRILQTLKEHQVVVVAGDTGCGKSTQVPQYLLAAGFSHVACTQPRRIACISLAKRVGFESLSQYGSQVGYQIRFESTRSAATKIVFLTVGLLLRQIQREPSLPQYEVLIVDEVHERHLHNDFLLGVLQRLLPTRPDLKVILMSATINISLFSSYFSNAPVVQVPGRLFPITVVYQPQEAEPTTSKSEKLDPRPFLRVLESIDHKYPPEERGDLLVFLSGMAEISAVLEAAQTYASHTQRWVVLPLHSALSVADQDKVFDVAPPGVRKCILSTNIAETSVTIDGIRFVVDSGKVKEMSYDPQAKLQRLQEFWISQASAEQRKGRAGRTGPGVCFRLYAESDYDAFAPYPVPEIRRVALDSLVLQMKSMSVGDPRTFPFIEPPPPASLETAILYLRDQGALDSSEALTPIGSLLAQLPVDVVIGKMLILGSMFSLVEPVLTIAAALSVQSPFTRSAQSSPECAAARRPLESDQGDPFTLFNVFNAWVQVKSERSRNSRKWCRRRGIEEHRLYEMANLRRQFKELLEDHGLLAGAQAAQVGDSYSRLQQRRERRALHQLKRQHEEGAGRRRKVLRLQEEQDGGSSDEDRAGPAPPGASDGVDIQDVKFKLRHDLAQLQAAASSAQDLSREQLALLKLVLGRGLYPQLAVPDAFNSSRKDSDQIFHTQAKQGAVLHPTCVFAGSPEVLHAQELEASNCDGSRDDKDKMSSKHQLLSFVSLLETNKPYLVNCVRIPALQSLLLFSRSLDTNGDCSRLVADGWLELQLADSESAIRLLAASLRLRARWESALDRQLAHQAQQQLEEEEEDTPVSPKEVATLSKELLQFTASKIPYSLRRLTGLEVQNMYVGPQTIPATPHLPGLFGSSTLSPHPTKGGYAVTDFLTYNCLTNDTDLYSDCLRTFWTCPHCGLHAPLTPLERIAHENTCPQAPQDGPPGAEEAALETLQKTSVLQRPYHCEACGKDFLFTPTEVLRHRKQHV
UniProt O75398: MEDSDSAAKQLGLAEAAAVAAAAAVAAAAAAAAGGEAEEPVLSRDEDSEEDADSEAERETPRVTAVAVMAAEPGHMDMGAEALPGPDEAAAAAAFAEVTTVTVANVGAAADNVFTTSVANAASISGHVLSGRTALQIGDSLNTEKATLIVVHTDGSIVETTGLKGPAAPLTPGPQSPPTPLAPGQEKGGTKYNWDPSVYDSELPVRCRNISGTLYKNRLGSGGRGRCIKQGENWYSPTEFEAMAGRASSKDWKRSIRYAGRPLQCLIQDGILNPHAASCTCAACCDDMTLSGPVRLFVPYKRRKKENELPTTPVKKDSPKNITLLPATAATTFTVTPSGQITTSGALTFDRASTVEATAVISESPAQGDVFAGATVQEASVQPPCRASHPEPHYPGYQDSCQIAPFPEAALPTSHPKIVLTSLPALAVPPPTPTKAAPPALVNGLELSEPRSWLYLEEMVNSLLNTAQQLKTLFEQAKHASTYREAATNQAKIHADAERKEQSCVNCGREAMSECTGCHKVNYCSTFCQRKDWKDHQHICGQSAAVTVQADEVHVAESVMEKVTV
UniProt Q9Y2R4: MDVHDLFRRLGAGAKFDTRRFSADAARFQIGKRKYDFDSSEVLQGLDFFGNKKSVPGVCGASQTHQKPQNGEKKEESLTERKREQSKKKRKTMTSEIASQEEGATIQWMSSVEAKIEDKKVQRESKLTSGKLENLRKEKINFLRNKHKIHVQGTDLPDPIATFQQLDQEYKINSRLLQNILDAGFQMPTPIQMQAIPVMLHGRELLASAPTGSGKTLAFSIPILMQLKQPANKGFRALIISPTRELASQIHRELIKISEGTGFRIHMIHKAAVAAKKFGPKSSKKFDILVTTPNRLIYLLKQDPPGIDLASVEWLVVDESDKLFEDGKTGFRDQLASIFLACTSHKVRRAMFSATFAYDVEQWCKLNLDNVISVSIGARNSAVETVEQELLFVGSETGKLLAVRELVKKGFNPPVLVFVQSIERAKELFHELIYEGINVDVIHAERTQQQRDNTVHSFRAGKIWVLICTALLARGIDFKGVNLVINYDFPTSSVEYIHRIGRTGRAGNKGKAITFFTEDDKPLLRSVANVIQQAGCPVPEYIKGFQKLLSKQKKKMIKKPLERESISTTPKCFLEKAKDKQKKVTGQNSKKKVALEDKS
UniProt Q13206, whole entry, looked up: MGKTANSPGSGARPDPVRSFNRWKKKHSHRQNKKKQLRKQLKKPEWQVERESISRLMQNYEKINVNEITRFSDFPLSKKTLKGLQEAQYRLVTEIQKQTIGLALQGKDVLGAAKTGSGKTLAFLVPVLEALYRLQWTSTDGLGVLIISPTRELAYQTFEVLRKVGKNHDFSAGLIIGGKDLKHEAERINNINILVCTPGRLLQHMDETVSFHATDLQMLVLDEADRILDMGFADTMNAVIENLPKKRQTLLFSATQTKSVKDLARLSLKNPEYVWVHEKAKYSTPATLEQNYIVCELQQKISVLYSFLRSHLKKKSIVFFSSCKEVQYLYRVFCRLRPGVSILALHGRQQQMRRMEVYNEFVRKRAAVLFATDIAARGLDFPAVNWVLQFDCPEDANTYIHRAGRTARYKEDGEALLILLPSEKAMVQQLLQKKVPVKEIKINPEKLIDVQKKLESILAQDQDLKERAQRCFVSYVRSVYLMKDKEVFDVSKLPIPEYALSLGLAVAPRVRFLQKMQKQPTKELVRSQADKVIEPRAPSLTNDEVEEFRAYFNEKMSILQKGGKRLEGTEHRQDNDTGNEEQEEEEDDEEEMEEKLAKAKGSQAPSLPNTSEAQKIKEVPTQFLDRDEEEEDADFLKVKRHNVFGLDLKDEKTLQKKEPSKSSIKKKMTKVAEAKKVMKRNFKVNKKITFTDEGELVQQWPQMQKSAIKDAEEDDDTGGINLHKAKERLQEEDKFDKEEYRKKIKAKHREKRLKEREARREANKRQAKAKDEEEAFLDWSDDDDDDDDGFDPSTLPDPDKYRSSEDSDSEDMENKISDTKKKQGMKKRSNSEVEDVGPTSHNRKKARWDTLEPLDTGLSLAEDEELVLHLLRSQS
UniProt Q8NHQ9: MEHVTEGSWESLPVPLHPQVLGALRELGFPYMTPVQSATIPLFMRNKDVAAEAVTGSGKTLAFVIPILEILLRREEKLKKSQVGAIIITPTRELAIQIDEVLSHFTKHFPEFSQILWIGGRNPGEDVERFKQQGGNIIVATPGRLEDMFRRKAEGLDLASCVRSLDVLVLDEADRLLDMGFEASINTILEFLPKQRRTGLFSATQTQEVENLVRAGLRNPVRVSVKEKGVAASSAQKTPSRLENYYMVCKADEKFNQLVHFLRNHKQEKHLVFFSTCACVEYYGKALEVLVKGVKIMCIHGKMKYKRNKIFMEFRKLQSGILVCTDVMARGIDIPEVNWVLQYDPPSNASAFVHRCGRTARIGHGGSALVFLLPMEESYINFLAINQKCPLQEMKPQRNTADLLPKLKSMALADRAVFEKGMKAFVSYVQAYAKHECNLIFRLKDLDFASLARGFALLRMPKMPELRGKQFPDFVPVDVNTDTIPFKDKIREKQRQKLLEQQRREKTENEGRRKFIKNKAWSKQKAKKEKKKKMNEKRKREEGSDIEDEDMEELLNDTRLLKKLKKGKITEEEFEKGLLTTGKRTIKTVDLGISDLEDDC
UniProt O94760: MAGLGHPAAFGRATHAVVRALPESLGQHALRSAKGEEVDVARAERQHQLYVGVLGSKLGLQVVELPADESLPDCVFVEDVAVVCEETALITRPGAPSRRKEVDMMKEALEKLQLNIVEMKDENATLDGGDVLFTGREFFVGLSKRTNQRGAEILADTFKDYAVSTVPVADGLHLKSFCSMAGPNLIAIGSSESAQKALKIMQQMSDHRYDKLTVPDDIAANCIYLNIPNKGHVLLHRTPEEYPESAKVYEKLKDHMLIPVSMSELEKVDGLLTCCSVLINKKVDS
UniProt O95057: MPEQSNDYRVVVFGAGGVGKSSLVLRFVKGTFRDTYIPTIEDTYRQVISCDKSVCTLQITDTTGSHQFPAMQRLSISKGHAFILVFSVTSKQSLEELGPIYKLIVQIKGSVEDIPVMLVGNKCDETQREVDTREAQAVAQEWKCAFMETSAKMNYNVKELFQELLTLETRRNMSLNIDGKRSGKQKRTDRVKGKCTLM
UniProt P23743: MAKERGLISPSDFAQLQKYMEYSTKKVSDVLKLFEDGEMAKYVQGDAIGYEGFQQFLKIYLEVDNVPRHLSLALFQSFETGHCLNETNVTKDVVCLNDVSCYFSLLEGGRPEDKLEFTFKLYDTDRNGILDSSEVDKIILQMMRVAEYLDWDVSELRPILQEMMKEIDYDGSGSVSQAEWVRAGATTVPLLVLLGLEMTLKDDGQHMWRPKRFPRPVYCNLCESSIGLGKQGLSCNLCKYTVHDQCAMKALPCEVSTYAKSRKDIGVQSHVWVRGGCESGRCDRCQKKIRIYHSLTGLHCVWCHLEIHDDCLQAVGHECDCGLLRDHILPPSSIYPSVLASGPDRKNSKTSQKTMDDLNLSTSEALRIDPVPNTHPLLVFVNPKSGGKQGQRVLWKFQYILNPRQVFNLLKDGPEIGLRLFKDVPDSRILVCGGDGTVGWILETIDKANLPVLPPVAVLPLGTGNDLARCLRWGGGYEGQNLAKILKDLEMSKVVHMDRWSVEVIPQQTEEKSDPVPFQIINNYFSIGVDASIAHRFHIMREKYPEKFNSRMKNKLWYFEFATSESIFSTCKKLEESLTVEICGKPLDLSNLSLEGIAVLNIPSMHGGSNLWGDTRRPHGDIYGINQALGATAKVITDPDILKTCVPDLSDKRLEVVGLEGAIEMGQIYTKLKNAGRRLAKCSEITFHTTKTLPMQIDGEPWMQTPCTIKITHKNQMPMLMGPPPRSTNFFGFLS

Columns and labels:
Experiment in all cases: log2 fold change, soluble protein after heating vs DMSO (PISA); higher = thermal stabilisation; K562 cells, 10 uM, 30 min; active = over 0.2 and 3.5 SD of the protein, either way, in both replicates (recomputed)
[1] = compound: CS(=O)(=O)c1ccc(-c2cnc(N)c(C(=O)Nc3ccccc3)n2)cc1
Method in brief: (§1)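 K562 cells at 2×10^6 cells/mL were treated for 30 min with 10 μM compound, and aliquots were heated for 3 min over 48°C-58°C before pooling. Extraction used PBS with 0.5% NP-40 at 4°C, and soluble protein was the supernatant after 21,000xg for 90 min, measured by TMTpro 16plex LC-MS/MS with channel sums equalised. Thermal stability values, relative to control samples and from duplicates, are log2 fold changes.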

[2] = compound: C[C@H](C1=CC=C(C=C1)C(=O)NC2=C3C=CNC3=NC=C2)N
Method in brief: as §1

duvelisib = compound: C[C@H](Nc1ncnc2nc[nH]c12)c1cc2cccc(Cl)c2c(=O)n1-c1ccccc1 [duvelisib]
Method in brief: as §1

gandotinib = compound: Cc1cc(Nc2cc(CN3CCOCC3)c3nc(C)c(Cc4ccc(Cl)cc4F)n3n2)n[nH]1 [gandotinib]
Method in brief: as §1

tozasertib = compound: Cc1cc(Nc2cc(N3CCN(C)CC3)nc(Sc3ccc(NC(=O)C4CC4)cc3)n2)n[nH]1 [tozasertib]
Method in brief: as §1

[3] = compound: Cc1cc(SCc2sc(-c3ccc(C(F)(F)F)cc3)nc2C)ccc1OCC(=O)O
Method in brief: as §1

[4] = compound: Cc1cccc(CC(=O)N2CCc3c2ccc(-c2cn(C)c4ncnc(N)c24)c3F)n1
Method in brief: as §1

dasatinib = compound: Cc1nc(Nc2ncc(C(=O)Nc3c(C)cccc3Cl)s2)cc(N2CCN(CCO)CC2)n1 [dasatinib]
Method in brief: as §1

[5] = compound: Cn1cc(-c2ccc3c(c2)CCN3C(=O)Cc2cccc(C(F)(F)F)c2)c2c(N)ncnc21
Method in brief: as §1

tipifarnib = compound: Cn1cncc1[C@@](N)(c1ccc(Cl)cc1)c1ccc2c(c1)c(-c1cccc(Cl)c1)cc(=O)n2C [tipifarnib]
Method in brief: as §1

bafetinib = compound: Cc1ccc(NC(=O)c2ccc(CN3CC[C@H](N(C)C)C3)c(C(F)(F)F)c2)cc1Nc1nccc(-c2cncnc2)n1 [bafetinib]
Method in brief: as §1

[6] = compound: C[C@@H]1COCCN1C2=NC(=NC(=C2)C3(CC3)S(=O)(=O)C)C4=C5C=CNC5=CC=C4
Method in brief: as §1

ispinesib = compound: Cc1ccc(C(=O)N(CCCN)[C@@H](c2nc3cc(Cl)ccc3c(=O)n2Cc2ccccc2)C(C)C)cc1 [ispinesib]
Method in brief: as §1

nilotinib = compound: Cc1cn(-c2cc(NC(=O)c3ccc(C)c(Nc4nccc(-c5cccnc5)n4)c3)cc(C(F)(F)F)c2)cn1 [nilotinib]
Method in brief: as §1

[7] = compound: Cc1nc(Nc2n[nH]c3c2CN(C(=O)N[C@H](CN(C)C)c2ccccc2)C3(C)C)c2sccc2n1
Method in brief: as §1

[8] = compound: Cc1ncc(-c2ccnc(Nc3ccc(S(C)(=O)=O)cc3)n2)n1C(C)C
Method in brief: as §1

[9] = compound: Cn1cc(-c2ccc3nnc(C(F)(F)c4ccc5ncccc5c4)n3n2)cn1
Method in brief: as §1

mubritinib = compound: FC(F)(F)c1ccc(/C=C/c2nc(COc3ccc(CCCCn4ccnn4)cc3)co2)cc1 [mubritinib]
Method in brief: as §1

crizotinib = compound: C[C@@H](Oc1cc(-c2cnn(C3CCNCC3)c2)cnc1N)c1c(Cl)ccc(F)c1Cl [crizotinib]
Method in brief: as §1

doramapimod = compound: Cc1ccc(-n2nc(C(C)(C)C)cc2NC(=O)Nc2ccc(OCCN3CCOCC3)c3ccccc23)cc1 [doramapimod]
Method in brief: as §1

Measured: log2 fold change

DMTF1 (UniProt Q9Y222)
inactive: [1] -0.063 | [2] 0.106 | duvelisib -0.002 | gandotinib 0.02 | tozasertib 0.011 | [3] -0.11 | [4] 0.047 | dasatinib -0.056 | [5] -0.054 | tipifarnib -0.128

DDX11L8 (UniProt A8MPP1)
inactive: [2] -0.268 | duvelisib -0.069 | [3] -0.145 | bafetinib -0.031 | dasatinib 0.106 | [5] -0.014 | tipifarnib -0.007

DEF8 (UniProt Q6ZN54)
inactive: bafetinib 0.033 | tipifarnib 0.045

DHX32 (UniProt Q7L7V1)
inactive: [6] -0.008 | tozasertib -0.139

DMKN (UniProt Q6E0U4)
inactive: tozasertib 0.166 | ispinesib 0.228 | bafetinib 0.503 | nilotinib 0 | [7] -0.01 | [8] -0.086 | [9] 0.294 | tipifarnib 0.088 | mubritinib 0.089

DHRSX (UniProt Q8N5I4)
inactive: crizotinib 0.171 | [2] -0.01 | gandotinib 0.08 | doramapimod -0.162 | bafetinib -0.009 | [4] -0.098 | nilotinib -0.034 | [7] 0.006 | [8] -0.167 | [5] 0.021 | mubritinib 0.03

Copied from the listing (two entries):
DEF8 (UniProt Q6ZN54)
inactive: bafetinib 0.033 | tipifarnib 0.045

DHX32 (UniProt Q7L7V1)
inactive: [6] -0.008 | tozasertib -0.139

(listing goes on)

DHPS (UniProt M0R1T2)
inactive: [1] -0.152 | bafetinib 0.081

DHX34 (UniProt Q14147)
inactive: crizotinib 0.032 | [6] -0.233 | duvelisib -0.019 | tozasertib 0.006 | [3] 0.078 | doramapimod 0.046 | ispinesib -0.16 | dasatinib -0.357 | [9] -0.122

DERPC (UniProt P0CG12)
inactive: crizotinib 0.029 | gandotinib 0.006 | [3] -0.113 | doramapimod -0.099 | ispinesib 0.07 | bafetinib -0.06 | [4] -0.193 | nilotinib 0.044 | [7] -0.04 | dasatinib 0.227 | [8] -0.126 | [9] 0.245 | mubritinib 0.049

DEAF1 (UniProt O75398)
inactive: duvelisib -0.075 | [3] 0.192 | dasatinib 0.167

DDX52 (UniProt Q9Y2R4)
inactive: crizotinib 0.018 | [2] 0.315 | duvelisib -0.193 | [3] 0.077 | doramapimod -0.243 | ispinesib 0 | bafetinib -0.039 | dasatinib 0.186 | [5] -0.172 | [9] -0.155

DDX10 (UniProt Q13206)
inactive: duvelisib -0.014 | [3] 0.117 | dasatinib -0.038

DDX46, A0A0C4DG89
inactive: [6] -0.009 | nilotinib 0.151 | [7] -0.322 | [8] 0.032 | mubritinib 0.242

DEF6 (UniProt Q9H4E7)
inactive: crizotinib -0.366 | [6] -0.161 | [2] 0.053 | tozasertib -0.138 | doramapimod -0.035 | ispinesib 0.172 | [5] -0.217 | [9] 0 | mubritinib -0.214

DDX55 (UniProt Q8NHQ9)
inactive: [1] 0.088 | tozasertib -0.12 | bafetinib 0.025

DDB1 isoform 2 (UniProt Q16531)
inactive: [1] 0.009 | [6] 0.118 | gandotinib -0.228 | bafetinib -0.286 | [4] -0.094

DDAH1 (UniProt O94760)
inactive: [2] -0.153 | duvelisib 0.071 | gandotinib -0.031 | tozasertib 0.23 | [3] -0.039 | bafetinib 0 | [4] 0.073 | nilotinib -0.057 | [7] 0.018 | dasatinib 0.047 | [8] -0.044 | [5] 0.125 | tipifarnib -0.092 | mubritinib 0.065

DIRAS1 (UniProt O95057)
inactive: tozasertib -0.064

DKK4 (UniProt Q9UBT3)
inactive: gandotinib 0.397 | [4] -0.745

DGKA (UniProt P23743)
inactive: [1] 0.339 | [6] 0.094 | duvelisib 0.226 | [3] -0.171 | ispinesib 0.111 | bafetinib -0.265 | dasatinib 0.151 | [9] -0.415 | tipifarnib -0.168 | mubritinib -0.005

DEPDC5 (UniProt O75140)
inactive: crizotinib 0.088 | duvelisib -0.109 | [3] 0.038 | doramapimod 0.203 | dasatinib 0.171

DIEXF (UniProt Q68CQ4)
inactive: [2] 0.289 | duvelisib 0.012 | [3] 0.258 | dasatinib -0.386 | [5] -0.204
